Laboratory results published in article PMC12040169 (PLOS Biology, 2025).
The list shows a part of the results.

System: T1, CTL2-GFP (C. trachomatis L2/434/Bu, GFP-expressing)
T1 construct: L2/434/Bu, GFP-expressing
Set-up: species or system HeLa; Intracellular C. trachomatis growth in HeLa cells, bulk GFP fluorescence relative to DMSO
Settings: bulk GFP, single well; 28.5 h, 10 µM; inhibitor

Row | Structure (SMILES) | % of control remaining
1 | CCc1ccc(O)c(NC(=S)NC(=O)c2cccc3c(Br)cccc23)c1 [CBK264385] | 102.692%
2 | CC(=O)NCCn1cc2c(n1)[C@H]1CN(C(=O)c3ccccc3)C[C@H]1C2 [CBK282073] | 88.5193%
3 | O=C(/C=C/c1cccnc1)NCc1ccc(OC2CCNCC2)cc1 [CBK038945T] | 127.832%
4 | Cc1nc(C)c(C(C)NCc2c(C(C)C)nn(C)c2N(C)C)s1 (stereo not shown) [CBK304005] | 150.974%
5 | Cc1ccc(C2=N/C(=C/c3ccc(OS(=O)(=O)c4ccc(C)c([N+](=O)[O-])c4)cc3)C(=O)O2)cc1 [CBK264647] | 106.388%
6 | NCCc1nc(-c2ccccc2)c2cnccn12 [CBK035705] | 125.999%
7 | O=C(Nc1ccc(S(=O)(=O)NCc2ccccc2)cc1)Nc1ccc2c(c1)OCO2 [CBK268186] | 113.831%
8 | COc1ccc(C2C(C(=O)Nc3ccccc3)=C(C)Nc3ncnn32)cc1 (stereo not shown) [CBK287353] | 108.805%
9 | CCN(C(C)COC)S(=O)(=O)c1cccc(Cl)c1Cl (stereo not shown) [CBK305146] | 108.909%
10 | Cc1cc(C)n2c(SCC(C)(C)NS(=O)(=O)c3ccccc3)nnc2n1 [CBK268369] | 109.288%
11 | Cc1noc(C)c1CC(=O)Nc1cccc(CN2CCCCCC2)c1 [CBK281407] | 80.1329%
12 | COc1ccccc1CCNC(=O)c1cnccn1 [CBK268147] | 100.998%
13 | COc1cccc(NC(=O)c2ccc(NC(=O)CCCC(=O)O)cc2)c1 [CBK287137] | 109.464%
14 | CCCn1cnc2cc(NC(=O)Cn3cc(C(=O)NC4CCCCC4)ccc3=O)ccc21 [CBK286098] | 106.908%
15 | CCc1nnc(N/N=C/c2ccc(OCc3ccc(F)cc3Cl)c(OC)c2)n1N [CBK278173C] | 103.882%
16 | Cc1cc(-c2ccc(=O)n(CCNC(=O)C3CCCCC3)n2)c(C)o1 [CBK284522] | 123.735%
17 | O=C(O)CCNc1ccc(Br)cc1C(=O)O [CBK087259] | 112.947%
18 | COc1ccc([N+](=O)[O-])c(N2CCOC3(CCN(C(=O)OCc4ccccc4)CC3)C2)n1 [CBK161117T] | 90.6493%
19 | CC(=O)Nc1ccc(S(=O)(=O)N2CCN(CCO)CC2)cc1 [CBK262196] | 100%
20 | O=C(O)CC1C(=O)NCCN1Cc1cccc(C(F)(F)F)c1 (stereo not shown) [CBK269958] | 144.116%
21 | CC(C)(O)c1cc(CC2(NCc3ccc(Cl)cc3)COC2)no1 [CBK289254] | 145.653%
22 | CC(C)NC(=O)c1sc2ccccc2c1C1CN(Cc2ccc3ncccc3c2)CCO1 (stereo not shown) [CBK285930] | 91.6777%
23 | O=C(O)C[C@@H]1CCN(C(=O)c2ccc3c(c2)OCO3)C[C@@H]1CC1=NCCc2ccccc21 [CBK289160] | 107.062%
24 | Cc1nc(NC(=O)c2ccoc2)sc1C [CBK296729] | 147.256%
25 | O=C(O)c1ccc(CNCCc2c[nH]c3ccccc23)cc1 [CBK287265] | 118.981%
26 | CCCCC1CCC(c2noc(-c3ccc(F)cc3)n2)CC1 (stereo not shown) [CBK027363] | 101.839%
27 | O=C1Nc2ccc(/C=C/c3ccccc3)cc2C(=O)N2CC[C@H](NC(=O)N3CCOCC3)[C@@H]12 [CBK289344] | 114.596%

Single values from the list:
% of control remaining, NCCc1nc(-c2ccccc2)c2cnccn12 [CBK035705] is entered as 125.999%
% of control remaining, CCCn1cnc2cc(NC(=O)Cn3cc(C(=O)NC4CCCCC4)ccc3=O)ccc21 [CBK286098] is entered as 106.908%

Remaining list, next part:

Row | Structure (SMILES) | % of control remaining
28 | CC(C)(C)c1cc(N)c(C(N)=O)s1 [CBK016752] | 96.1645%
29 | Cc1csc(C(Cc2ccsc2)NC(=O)C2CCOCC2)n1 (stereo not shown) [CBK285047] | 139.454%
30 | COc1cc2c(cc1OC)C1(CCN(CCc3c[nH]c4ccccc34)CC1)NC(=O)C2 [CBK039992] | 180.344%
31 | Fc1ccc(Br)cc1SCCc1ccccn1 [CBK262330G] | 111.287%
32 | COc1ccc(CN2C(=O)CS(=O)(=O)CC2=O)cc1OC [CBK011127] | 98.6759%
33 | Clc1cncc(NCCc2c[nH]c3ccccc23)n1 [CBK093514] | 91.0223%
34 | Cn1c(=O)c2c(ncn2CC(=O)Nc2cccc(Br)c2)n(C)c1=O [CBK133287] | 103.243%
35 | CS(=O)(=O)N(Cc1ccc(Cl)cc1)c1ccc(C(=O)Nc2ccccc2C(=O)O)cc1 [CBK264093] | 106.771%
36 | COc1ccc(-c2nccnc2NCCCN(C)C)cc1 [CBK037671] | 86.1064%
37 | Fc1cccc(Nc2nc(C3CCNCC3)c3ccccn23)c1 [CBK281522] | 131.273%
38 | O=C(NNc1nc(-c2ccccc2)cc(-c2ccccc2)n1)Nc1ccccc1 [CBK262223] | 121.834%
39 | CSCC[C@H](NC(=O)c1cccc2c1-c1ccccc1C2=O)C(=O)O [CBK286781] | 119.896%
40 | Cc1cc(S(=O)(=O)NCc2ccccc2-n2ccnc2)ccc1F [CBK281477] | 98.0704%
41 | Fc1ccc2[nH]c3c(c2c1)CCNC31CCN(CCOc2ccccc2)C1 (stereo not shown) [CBK085404T] | 94.9516%
42 | Cc1ccc(NC(=O)CSc2nc3ccccc3c(=O)n2Cc2ccco2)cc1Cl [CBK265606] | 91.795%
43 | Cc1ccc(C(C)C)c(OCc2ccc(C(=O)Nc3ccc(S(N)(=O)=O)cc3C)o2)c1 [CBK265833] | 91.1423%
44 | CCC(Sc1ccc2nnc(-c3ccc(C)cc3)n2n1)C(=O)O (stereo not shown) [CBK287524] | 150.21%
45 | Nc1ncnc(NCCCc2ccccc2)c1[N+](=O)[O-] [CBK267261] | 136.465%
46 | O=[N+]([O-])c1ccc(OCCO)cc1 [CBK000628] | 138.072%
47 | CNC(=O)c1ccc(-c2ccccc2OC)nc1N1CCOCC1 [CBK106210] | 100%
48 | CC1CN(C(=O)NC(=O)c2ccc(-c3csnn3)cc2)CC(C)O1 (stereo not shown) [CBK017091] | 145.034%
49 | CCOC(=O)c1cnc2nc(N3CCOCC3)nn2c1N [CBK007371] | 100.938%
50 | Cc1ccc2nc(-c3ccc(/N=C/c4ccc(/C=N/c5ccc(-c6nc7ccc(C)cc7s6)cc5)cc4)cc3)sc2c1 [CBK261661] | 117.884%
51 | CCCC/C=C/c1cnc2[nH]c(=O)n(Cc3ccc(S(N)(=O)=O)cc3)c2n1 [CBK064956] | 65.4199%
52 | O=C(c1ccccn1)N1C2CCC1CC(O)(c1ccco1)C2 (stereo not shown) [CBK284034] | 130.035%
53 | Cc1cc(OCC(C)C)ccc1C(=O)C1=C(O)C(=O)N(Cc2cccnc2)C1c1cccnc1 (stereo not shown) [CBK264883] | 120.82%
54 | COc1ccc(NC(=O)CC2NC(=O)NC2=O)cc1 (stereo not shown) [CBK267279] | 115.359%

Row | Structure (SMILES) | % of control remaining
55 | N#CCCN(Cc1ccco1)C(=O)c1cccc(NC(=O)C2CC2)c1 [CBK304014] | 110.582%
56 | CC(C)(C)c1ccccc1NC(=O)N(CCN)Cc1cc(F)cc(F)c1 [CBK046263C] | 119.62%
57 | Cc1ccc(S(=O)(=O)Nc2nnc(C(C)C)s2)cc1 [CBK045528] | 107.991%
58 | CN1CCC(COC(=O)Nc2cccnc2)CC1 [CBK138232] | 88.1976%
59 | COC(=O)[C@H]1CN(C(=O)c2cn(C)nc2C)C[C@@H]1c1ccccc1F [CBK283511] | 125.477%
60 | CC[C@H](Cn1c(=O)oc2ccccc21)NC(=O)Cc1cccs1 [CBK284537] | 144.694%
61 | CN(CC(=O)Nc1cc2ccccc2c(N2CCNCC2)n1)C(=O)c1ccccc1 [CBK028421T] | 123.571%
62 | Cn1cc(-c2nccnc2OC2CCCCC2)cn1 [CBK107072] | 166.844%
63 | COc1ccc(CC(=O)N2CCN(C(C)c3nc4ccccc4s3)CC2)cc1F (stereo not shown) [CBK297733] | 133.526%
64 | COC(=O)c1ccc(N2CCN(C)CC2)c([N+](=O)[O-])c1 [CBK264341] | 122.151%
65 | CN(C)c1ccc(-c2ccnc3nc(N)ccc23)cc1 [CBK067640] | 131.419%
66 | Cc1c(C(=O)N(C)Cc2cccn2C)[nH]c2ccccc12 [CBK283270] | 104.504%
67 | COc1ccc(C(=O)C2=C(O)C(=O)N(Cc3cccnc3)C2c2ccc(OC)cc2OC)c(C)c1 (stereo not shown) [CBK264928] | 123.234%
68 | Cc1sc2[nH]c(CCC(=O)N3CCCC(C)CC3)nc(=O)c2c1C (stereo not shown) [CBK305807] | 123.357%
69 | CSc1nsc(SCC(=O)c2ccc3c(c2)OCCO3)n1 [CBK268904] | 104.677%
70 | CCOC(=O)C1CCN(C(=O)c2cccnc2NCc2ccc3c(c2)OCO3)CC1 [CBK160106] | 63.6467%
71 | COc1ccc2[nH]cc(CCNC(=O)[C@H](CC(C)C)NC(C)=O)c2c1 [CBK116210] | 116.345%
72 | O=C(N[C@@H](Cn1cc(F)c(=O)[nH]c1=O)C(=O)O)C1CCCCC1 [CBK289661] | 106.381%
73 | CC(=O)Nc1ccccc1/C=C/c1ccc2c(C)cc(C)c(O)c2n1 [CBK261937] | 84.2645%
74 | Cc1cc2occ(CC(=O)NCc3ccccn3)c2c(C)c1Cl [CBK269175] | 128.606%
75 | O=C(O)CCC(=O)N1CCCC2(CCN(Cc3ccccc3)C2)C1 (stereo not shown) [CBK136890] | 106.31%
76 | O=C(COc1ccc(I)cc1)Nc1cccnc1 [CBK263430] | 115.606%
77 | CCc1nc2ccc(C(=O)N3CCN(c4ccccc4)CC3)cn2c1N(C)Cc1ccc(OC)cc1 [CBK145584] | 109.577%
78 | O=C(O)c1cccc(NC(=O)c2cccc(S(=O)(=O)N3CCc4ccccc4C3)c2)c1 [CBK265187] | 119.116%
79 | Cc1noc(NS(=O)(=O)c2ccc(NC(=O)/C=C/c3ccc(C(C)C)cc3)cc2)c1C [CBK265430] | 19.2265%

Random excerpt: four records from the list
Row | Structure (SMILES) | % of control remaining
65 | CN(C)c1ccc(-c2ccnc3nc(N)ccc23)cc1 [CBK067640] | 131.419%
62 | Cn1cc(-c2nccnc2OC2CCCCC2)cn1 [CBK107072] | 166.844%
77 | CCc1nc2ccc(C(=O)N3CCN(c4ccccc4)CC3)cn2c1N(C)Cc1ccc(OC)cc1 [CBK145584] | 109.577%
56 | CC(C)(C)c1ccccc1NC(=O)N(CCN)Cc1cc(F)cc(F)c1 [CBK046263C] | 119.62%
